Common to all, as to assay: affinity purification with mass spectrometry
For assay [1], the target named is T1, full-length p115-GFP (human) (UniProt O60763).
T1 sequence: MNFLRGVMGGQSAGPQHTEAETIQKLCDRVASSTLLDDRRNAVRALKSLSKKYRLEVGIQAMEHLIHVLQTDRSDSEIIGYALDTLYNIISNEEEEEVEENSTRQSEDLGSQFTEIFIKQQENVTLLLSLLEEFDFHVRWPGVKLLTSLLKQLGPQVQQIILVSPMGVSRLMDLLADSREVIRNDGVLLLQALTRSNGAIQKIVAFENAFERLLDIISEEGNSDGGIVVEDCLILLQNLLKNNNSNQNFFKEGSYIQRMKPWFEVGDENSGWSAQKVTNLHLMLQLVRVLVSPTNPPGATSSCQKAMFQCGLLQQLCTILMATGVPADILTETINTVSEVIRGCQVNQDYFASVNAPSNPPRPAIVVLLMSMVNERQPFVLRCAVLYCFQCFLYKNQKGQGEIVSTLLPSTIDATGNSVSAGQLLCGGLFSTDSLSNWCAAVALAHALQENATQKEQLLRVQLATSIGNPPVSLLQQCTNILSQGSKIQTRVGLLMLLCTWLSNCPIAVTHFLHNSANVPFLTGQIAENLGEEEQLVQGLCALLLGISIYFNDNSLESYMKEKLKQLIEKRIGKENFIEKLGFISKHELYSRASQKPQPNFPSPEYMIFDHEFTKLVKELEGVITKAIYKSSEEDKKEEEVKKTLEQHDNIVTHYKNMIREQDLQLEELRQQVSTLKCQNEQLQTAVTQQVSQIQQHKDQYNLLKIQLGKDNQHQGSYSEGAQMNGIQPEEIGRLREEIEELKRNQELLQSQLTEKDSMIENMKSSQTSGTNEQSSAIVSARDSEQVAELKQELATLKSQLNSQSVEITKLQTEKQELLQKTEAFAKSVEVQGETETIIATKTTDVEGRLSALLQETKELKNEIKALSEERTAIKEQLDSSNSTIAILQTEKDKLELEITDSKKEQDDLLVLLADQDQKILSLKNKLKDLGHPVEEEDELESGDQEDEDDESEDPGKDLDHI

Chains of the proteins cited; added tags and fusions are not shown.
UniProt Q9BQQ3: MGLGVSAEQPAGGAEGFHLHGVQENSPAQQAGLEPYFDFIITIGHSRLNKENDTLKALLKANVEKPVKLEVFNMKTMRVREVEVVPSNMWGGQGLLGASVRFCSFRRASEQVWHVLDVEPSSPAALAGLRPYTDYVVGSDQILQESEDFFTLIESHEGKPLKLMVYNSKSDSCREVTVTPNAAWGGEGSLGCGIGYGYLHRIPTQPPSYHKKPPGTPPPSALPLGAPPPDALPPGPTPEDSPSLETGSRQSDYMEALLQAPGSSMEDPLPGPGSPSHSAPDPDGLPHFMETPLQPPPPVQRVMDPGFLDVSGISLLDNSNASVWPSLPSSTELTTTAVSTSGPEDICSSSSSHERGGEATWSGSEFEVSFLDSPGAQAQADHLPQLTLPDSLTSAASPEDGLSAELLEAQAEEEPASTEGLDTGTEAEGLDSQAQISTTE
UniProt Q99996: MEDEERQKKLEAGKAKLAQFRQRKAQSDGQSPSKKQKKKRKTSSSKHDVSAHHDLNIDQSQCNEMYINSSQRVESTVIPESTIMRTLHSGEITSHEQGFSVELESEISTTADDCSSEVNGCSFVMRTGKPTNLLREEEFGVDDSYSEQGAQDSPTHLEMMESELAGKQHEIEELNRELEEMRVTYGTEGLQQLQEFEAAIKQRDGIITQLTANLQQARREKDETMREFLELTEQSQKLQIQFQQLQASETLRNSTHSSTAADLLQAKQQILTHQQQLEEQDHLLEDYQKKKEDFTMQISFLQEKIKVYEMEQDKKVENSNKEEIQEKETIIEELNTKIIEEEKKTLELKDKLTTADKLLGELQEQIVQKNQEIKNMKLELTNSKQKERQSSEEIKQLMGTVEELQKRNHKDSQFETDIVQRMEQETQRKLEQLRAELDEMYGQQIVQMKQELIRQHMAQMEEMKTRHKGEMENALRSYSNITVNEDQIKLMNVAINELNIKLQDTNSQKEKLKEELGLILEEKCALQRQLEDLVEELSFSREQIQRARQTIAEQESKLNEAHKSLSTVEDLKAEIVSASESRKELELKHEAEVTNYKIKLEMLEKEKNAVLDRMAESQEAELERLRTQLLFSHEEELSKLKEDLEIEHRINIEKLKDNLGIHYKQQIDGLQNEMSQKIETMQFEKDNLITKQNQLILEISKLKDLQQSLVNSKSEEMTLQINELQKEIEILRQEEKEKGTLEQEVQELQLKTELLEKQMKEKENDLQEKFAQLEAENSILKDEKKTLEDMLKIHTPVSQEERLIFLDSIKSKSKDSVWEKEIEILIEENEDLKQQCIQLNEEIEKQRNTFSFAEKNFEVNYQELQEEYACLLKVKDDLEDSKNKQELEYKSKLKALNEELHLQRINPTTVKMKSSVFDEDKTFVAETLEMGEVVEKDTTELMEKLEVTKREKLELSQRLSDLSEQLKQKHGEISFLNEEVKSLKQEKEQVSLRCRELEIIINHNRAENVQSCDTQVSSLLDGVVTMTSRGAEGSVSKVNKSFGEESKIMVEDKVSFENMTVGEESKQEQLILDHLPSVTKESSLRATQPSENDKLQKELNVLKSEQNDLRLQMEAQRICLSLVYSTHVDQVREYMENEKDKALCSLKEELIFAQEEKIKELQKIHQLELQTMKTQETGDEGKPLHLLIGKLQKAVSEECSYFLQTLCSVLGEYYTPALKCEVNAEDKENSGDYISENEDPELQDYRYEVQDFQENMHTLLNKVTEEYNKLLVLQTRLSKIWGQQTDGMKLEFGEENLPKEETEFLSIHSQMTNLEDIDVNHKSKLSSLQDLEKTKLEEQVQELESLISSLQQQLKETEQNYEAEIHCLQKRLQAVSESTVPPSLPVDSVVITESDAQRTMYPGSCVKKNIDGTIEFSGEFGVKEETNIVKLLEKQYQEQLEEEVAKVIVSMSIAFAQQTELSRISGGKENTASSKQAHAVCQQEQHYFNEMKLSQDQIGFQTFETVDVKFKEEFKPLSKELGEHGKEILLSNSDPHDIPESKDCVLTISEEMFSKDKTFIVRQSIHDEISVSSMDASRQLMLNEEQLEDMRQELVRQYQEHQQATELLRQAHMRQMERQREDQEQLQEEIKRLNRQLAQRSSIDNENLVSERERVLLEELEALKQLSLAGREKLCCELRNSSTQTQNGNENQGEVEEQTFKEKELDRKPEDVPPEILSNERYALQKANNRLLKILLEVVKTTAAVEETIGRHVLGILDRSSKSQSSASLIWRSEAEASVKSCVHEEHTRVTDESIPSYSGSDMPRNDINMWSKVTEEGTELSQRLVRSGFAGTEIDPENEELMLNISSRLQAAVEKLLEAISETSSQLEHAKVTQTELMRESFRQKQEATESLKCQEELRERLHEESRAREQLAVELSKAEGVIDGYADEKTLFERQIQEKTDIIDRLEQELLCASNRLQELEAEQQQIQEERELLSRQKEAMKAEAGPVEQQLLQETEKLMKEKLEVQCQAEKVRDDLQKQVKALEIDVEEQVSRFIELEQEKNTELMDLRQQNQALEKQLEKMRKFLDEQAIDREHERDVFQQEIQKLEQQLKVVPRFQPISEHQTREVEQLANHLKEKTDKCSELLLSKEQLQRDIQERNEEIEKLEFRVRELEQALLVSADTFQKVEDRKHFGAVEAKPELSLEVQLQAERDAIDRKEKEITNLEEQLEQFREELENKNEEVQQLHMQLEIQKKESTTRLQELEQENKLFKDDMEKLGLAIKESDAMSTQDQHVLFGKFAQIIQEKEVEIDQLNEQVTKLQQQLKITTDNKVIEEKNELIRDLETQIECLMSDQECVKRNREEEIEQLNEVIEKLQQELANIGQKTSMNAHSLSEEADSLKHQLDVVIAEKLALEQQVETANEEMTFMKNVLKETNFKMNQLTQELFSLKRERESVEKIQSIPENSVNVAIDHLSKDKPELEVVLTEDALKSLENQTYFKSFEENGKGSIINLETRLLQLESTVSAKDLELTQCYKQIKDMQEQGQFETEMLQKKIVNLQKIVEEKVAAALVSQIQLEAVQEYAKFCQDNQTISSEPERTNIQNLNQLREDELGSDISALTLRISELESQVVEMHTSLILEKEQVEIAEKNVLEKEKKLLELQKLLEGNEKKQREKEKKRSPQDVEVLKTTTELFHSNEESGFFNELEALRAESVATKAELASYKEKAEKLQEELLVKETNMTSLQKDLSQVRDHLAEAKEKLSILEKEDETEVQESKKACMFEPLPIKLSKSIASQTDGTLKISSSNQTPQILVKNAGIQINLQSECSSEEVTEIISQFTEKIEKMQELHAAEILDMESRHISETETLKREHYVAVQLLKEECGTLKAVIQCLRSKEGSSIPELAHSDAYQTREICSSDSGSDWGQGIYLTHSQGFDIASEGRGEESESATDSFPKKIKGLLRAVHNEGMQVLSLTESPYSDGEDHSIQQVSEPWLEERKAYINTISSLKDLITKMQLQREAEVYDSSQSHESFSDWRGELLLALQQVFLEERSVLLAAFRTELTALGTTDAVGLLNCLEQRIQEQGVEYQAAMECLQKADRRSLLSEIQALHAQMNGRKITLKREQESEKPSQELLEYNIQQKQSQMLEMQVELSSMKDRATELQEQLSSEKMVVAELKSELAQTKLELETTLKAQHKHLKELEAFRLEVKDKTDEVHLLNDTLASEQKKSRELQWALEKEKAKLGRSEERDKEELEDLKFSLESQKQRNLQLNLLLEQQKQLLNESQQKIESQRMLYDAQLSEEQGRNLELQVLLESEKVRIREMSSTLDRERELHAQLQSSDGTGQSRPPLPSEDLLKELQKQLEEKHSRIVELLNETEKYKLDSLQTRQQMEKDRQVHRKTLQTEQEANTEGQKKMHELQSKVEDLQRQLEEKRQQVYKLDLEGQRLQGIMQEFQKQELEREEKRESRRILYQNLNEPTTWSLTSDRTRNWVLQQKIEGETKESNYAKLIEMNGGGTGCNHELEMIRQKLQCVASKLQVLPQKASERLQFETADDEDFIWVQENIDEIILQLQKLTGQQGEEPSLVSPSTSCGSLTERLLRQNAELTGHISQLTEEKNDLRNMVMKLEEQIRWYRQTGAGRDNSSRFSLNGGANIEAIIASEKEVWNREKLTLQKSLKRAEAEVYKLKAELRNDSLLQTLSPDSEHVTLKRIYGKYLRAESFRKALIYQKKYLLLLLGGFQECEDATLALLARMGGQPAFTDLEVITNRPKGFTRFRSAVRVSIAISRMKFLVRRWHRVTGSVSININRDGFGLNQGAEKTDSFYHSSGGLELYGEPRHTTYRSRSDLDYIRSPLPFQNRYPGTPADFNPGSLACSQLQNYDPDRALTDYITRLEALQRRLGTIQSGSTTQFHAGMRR
UniProt Q96SN8: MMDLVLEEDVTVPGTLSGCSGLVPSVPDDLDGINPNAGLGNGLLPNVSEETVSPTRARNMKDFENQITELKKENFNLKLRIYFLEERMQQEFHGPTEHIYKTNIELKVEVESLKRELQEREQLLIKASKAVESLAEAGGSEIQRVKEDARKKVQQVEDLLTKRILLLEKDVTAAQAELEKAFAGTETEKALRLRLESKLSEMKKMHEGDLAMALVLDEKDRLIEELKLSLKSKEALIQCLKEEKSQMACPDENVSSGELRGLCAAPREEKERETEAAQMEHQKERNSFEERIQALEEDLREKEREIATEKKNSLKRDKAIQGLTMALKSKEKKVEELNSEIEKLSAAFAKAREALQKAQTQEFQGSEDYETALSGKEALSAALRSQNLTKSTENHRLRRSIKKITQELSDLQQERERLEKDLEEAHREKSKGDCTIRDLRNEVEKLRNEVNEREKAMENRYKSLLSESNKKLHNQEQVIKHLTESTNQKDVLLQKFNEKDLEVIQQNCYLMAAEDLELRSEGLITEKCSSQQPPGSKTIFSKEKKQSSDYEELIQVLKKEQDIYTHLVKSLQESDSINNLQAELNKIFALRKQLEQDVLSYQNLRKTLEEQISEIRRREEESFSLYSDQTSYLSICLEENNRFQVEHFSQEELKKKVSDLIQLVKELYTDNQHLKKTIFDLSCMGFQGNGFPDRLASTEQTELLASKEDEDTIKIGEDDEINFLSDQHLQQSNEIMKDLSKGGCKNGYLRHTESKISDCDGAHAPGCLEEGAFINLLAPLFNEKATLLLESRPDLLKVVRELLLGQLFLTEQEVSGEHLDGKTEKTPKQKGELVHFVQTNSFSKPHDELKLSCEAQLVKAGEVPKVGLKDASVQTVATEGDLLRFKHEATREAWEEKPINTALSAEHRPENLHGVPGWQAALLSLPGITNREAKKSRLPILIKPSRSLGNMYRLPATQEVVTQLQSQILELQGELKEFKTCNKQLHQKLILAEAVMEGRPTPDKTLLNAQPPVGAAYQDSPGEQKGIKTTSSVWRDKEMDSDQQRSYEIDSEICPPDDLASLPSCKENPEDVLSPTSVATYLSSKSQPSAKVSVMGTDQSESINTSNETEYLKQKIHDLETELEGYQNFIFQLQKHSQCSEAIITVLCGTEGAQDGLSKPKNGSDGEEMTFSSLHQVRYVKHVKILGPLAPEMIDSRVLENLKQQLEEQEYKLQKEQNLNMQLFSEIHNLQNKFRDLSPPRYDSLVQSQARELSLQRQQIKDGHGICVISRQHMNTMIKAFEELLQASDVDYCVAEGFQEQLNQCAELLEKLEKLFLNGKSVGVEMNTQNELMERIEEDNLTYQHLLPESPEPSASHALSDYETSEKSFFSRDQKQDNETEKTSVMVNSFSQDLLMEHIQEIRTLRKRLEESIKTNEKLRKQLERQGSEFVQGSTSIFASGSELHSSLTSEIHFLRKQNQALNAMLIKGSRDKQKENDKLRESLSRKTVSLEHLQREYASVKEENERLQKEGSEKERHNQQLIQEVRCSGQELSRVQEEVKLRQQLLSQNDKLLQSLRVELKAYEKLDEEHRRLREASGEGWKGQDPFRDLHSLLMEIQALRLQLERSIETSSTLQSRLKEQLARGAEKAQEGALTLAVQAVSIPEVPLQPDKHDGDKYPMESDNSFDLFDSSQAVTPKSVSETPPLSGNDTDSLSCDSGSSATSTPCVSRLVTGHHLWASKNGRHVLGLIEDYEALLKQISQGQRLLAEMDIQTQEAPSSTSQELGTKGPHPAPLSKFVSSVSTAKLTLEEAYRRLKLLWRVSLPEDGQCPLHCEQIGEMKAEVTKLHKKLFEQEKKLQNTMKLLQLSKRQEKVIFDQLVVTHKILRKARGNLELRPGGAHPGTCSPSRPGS

A further assay concerns the target p115-tail-GFP (human).
In assay [2] the target is T2, full-length p115-GFP Q462D (human) (UniProt O60763).
T2 sequence: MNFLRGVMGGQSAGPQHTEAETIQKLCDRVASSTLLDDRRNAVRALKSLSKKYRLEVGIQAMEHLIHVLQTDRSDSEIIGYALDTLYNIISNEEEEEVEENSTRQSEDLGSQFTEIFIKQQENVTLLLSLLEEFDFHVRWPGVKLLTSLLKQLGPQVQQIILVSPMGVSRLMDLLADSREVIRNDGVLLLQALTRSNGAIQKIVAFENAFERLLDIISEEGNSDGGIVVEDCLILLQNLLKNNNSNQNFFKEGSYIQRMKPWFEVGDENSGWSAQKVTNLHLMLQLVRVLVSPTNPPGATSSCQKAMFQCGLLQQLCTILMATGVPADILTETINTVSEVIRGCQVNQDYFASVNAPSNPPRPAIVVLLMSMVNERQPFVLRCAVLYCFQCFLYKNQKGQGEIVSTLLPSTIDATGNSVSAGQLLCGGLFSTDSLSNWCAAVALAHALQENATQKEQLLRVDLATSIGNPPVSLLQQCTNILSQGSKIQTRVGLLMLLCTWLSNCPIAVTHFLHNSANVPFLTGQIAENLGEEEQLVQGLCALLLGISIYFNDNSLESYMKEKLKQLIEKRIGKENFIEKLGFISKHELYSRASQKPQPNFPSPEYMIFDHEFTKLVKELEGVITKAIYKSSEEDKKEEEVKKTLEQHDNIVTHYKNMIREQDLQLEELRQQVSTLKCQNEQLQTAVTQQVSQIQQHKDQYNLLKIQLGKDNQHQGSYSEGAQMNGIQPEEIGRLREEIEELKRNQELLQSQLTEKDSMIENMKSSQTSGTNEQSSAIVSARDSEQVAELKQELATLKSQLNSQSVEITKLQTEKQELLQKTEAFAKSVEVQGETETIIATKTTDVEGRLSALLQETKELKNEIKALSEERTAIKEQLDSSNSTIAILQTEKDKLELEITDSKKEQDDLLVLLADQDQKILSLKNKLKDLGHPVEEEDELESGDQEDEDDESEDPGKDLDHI

No constants are given. Whether binding was seen depends on the method and setting. Binding seen in cells or lysates may run through a third protein. These calls come from enrichment with a bait or labelling near it, and not all partners need be listed. For some assays here: No binding means not detected with the bait. For some assays here: Tags and fused reporters may be left off the sequences shown.

Regarding GRASP65 (from UniProt Q9BQQ3 1-440), the binding result in assay [1] is “binds”.

For the molecule PCM1 (from UniProt Q15154 1-2024), the binding entry in assay [1] was “binds”.

In the case of Sec31 (human (endogenous in HEK293T)), the binding result in assay [1] is reported as “no binding”.

Turning to AKAP9 (from UniProt Q99996 1-3907), in assay [1], the binding result is on record as “binds”.

Consider CDK5RAP2 (from UniProt Q96SN8 1-1893), for which, in assay [1], the binding entry was “binds”.

B1: GM130 (protein, UniProt Q08379 1-1002)
chain: MWPQPRLPPRPAMSEETRQSKLAAAKKKLREYQQRNSPGVPTGAKKKKKIKNGSNPETTTSGGCHSPEDTPKDNAATLQPSDDTVLPGGVPSPGASLTSMAASQNHDADNVPNLMDETKTFSSTESLRQLSQQLNGLVCESATCVNGEGPASSANLKDLESRYQQLAVALDSSYVTNKQLNITIEKLKQQNQEITDQLEEEKKECHQKQGALREQLQVHIQTIGILVSEKAELQTALAHTQHAARQKEGESEDLASRLQYSRRRVGELERALSAVSTQQKKADRYNKELTKERDALRLELYKNTQSNEDLKQEKSELEEKLRVLVTEKAGMQLNLEELQKKLEMTELLLQQFSSRCEAPDANQQLQQAMEERAQLEAHLGQVMESVRQLQMERDKYAENLKGESAMWRQRMQQMSEQVHTLREEKECSMSRVQELETSLAELRNQMAEPPPPEPPAGPSEVEQQLQAEAEHLRKELEGLAGQLQAQVQDNEGLSRLNREQEERLLELERAAELWGEQAEARRQILETMQNDRTTISRALSQNRELKEQLAELQSGFVKLTNENMEITSALQSEQHVKRELGKKLGELQEKLSELKETVELKSQEAQSLQQQRDQYLGHLQQYVAAYQQLTSEKEVLHNQLLLQTQLVDQLQQQEAQGKAVAEMARQELQETQERLEAATQQNQQLRAQLSLMAHPGEGDGLDREEEEDEEEEEEEAVAVPQPMPSIPEDLESREAMVAFFNSAVASAEEEQARLRGQLKEQRVRCRRLAHLLASAQKEPEAAAPAPGTGGDSVCGETHRALQGAMEKLQSRFMELMQEKADLKERVEELEHRCIQLSGETDTIGEYIALYQSQRAVLKERHREKEEYISRLAQDKEEMKVKLLELQELVLRLVGDRNEWHGRFLAAAQNPADEPTSGAPAPQELGAANQQGDLCEVSLAGSVEPAQGEAREGSPRDNPTAQQIMQLLREMQNPRERPGLGSNPCIPFFYRADENDEVKITVI
Turning to B1, the binding entry (with p115-tail-GFP (human); in assay [1]; in assay [2]) was “binds” in each case.
